The supplement of paper PMC10849652
This is one part of the list.

Sequences of proteins named here, by UniProt entry; tags and fusion partners are left off. A change or cut given only in a name is not applied to a line headed by its entry.
UniProt Q9UBW8: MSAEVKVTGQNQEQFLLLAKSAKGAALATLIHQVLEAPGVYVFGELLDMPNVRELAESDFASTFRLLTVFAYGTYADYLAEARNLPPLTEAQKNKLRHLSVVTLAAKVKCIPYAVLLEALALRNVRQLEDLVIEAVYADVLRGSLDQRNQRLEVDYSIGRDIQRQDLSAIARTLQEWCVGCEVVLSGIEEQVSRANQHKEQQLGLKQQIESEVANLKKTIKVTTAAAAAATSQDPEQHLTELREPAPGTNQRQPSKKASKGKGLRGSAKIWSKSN
UniProt Q14746: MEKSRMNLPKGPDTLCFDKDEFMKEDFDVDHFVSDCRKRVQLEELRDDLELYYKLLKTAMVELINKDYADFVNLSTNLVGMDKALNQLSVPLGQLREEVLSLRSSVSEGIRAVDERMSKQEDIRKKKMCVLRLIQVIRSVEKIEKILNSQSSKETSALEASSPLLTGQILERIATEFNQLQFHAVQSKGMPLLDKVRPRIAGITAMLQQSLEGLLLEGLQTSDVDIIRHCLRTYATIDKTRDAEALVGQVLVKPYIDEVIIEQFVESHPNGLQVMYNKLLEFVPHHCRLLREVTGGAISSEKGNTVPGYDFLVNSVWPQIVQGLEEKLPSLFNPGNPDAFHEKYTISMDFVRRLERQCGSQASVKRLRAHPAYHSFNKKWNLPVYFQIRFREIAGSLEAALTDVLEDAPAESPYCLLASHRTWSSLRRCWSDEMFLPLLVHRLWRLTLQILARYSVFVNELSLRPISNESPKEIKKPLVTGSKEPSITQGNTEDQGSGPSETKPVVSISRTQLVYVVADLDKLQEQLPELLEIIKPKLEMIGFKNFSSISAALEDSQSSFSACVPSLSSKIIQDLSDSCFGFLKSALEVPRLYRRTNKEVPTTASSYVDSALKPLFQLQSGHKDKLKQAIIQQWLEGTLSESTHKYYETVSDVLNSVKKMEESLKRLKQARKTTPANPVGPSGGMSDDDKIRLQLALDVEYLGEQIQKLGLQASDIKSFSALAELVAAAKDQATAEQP
UniProt Q9ULV4, whole entry, looked up: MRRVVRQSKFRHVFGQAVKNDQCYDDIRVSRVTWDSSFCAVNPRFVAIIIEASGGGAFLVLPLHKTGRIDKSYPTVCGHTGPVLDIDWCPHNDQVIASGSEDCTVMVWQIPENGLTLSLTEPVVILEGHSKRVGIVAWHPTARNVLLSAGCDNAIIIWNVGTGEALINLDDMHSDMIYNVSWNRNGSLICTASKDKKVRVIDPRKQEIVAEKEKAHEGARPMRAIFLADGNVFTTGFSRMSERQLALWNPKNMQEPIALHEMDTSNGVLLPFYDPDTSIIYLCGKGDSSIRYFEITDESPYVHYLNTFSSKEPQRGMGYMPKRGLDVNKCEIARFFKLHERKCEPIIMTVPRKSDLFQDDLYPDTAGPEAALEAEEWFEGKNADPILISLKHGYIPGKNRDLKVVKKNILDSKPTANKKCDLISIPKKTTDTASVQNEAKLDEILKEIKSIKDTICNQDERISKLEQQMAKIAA
UniProt Q8N8Q8: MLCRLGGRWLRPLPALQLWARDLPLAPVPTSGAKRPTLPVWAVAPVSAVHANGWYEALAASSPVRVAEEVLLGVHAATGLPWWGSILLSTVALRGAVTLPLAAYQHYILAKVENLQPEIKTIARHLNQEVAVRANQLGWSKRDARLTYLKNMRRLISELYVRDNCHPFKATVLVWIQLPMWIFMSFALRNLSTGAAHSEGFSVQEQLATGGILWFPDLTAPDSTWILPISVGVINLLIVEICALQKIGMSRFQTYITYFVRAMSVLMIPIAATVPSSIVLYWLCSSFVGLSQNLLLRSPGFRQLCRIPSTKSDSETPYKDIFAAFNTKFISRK
UniProt Q5RI15: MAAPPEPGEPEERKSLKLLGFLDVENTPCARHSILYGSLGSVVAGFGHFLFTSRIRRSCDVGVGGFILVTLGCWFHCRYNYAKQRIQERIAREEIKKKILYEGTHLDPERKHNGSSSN
UniProt P12074, whole entry, looked up: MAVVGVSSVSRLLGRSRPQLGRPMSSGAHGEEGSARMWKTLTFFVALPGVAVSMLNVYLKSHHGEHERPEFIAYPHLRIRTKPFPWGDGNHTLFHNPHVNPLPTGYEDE
UniProt Q9P003: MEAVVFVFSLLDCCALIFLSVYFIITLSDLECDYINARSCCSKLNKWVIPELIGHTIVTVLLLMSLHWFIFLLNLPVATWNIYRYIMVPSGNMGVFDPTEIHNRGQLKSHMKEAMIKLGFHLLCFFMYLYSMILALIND
UniProt Q9GZY4: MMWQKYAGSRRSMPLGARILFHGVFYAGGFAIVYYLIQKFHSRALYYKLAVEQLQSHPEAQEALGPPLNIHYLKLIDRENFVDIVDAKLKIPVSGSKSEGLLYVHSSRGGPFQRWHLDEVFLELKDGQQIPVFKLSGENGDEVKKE
UniProt Q8N684: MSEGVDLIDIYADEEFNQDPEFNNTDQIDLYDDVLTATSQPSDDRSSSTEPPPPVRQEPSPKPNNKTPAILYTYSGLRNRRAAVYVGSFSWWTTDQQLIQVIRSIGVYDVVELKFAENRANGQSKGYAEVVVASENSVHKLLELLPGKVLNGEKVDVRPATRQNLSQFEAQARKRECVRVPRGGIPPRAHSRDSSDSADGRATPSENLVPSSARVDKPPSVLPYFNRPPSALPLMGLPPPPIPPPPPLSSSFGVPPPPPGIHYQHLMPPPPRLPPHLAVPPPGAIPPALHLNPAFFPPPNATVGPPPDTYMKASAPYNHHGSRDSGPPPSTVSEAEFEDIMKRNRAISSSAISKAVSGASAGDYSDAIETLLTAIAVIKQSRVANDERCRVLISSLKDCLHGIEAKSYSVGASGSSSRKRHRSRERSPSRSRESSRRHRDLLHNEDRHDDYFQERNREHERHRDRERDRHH
UniProt Q99807: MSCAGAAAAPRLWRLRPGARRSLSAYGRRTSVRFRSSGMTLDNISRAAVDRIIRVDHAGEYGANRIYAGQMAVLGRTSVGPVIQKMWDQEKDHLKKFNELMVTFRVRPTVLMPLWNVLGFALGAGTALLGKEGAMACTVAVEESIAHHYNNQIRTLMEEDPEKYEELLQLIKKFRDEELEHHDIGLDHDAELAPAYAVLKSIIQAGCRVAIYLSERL
UniProt Q6PJW8: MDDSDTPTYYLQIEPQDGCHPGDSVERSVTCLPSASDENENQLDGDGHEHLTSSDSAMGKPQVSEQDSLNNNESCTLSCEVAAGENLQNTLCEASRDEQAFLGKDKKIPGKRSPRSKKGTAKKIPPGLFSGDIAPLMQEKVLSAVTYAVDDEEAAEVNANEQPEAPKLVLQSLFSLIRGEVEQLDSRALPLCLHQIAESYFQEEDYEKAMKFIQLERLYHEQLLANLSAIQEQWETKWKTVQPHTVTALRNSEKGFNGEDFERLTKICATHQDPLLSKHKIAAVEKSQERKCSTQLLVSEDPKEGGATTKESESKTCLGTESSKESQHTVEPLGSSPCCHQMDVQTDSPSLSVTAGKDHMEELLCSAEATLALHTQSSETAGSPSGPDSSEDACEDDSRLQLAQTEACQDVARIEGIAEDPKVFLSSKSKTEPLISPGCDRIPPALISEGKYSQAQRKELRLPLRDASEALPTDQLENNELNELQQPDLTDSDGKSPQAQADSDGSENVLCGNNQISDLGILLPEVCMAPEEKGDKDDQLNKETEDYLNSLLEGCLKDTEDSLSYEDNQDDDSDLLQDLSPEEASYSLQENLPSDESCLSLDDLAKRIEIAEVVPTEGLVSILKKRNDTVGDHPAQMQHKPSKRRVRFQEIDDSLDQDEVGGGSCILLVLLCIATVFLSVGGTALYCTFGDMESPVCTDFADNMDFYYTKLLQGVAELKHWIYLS
UniProt Q14019: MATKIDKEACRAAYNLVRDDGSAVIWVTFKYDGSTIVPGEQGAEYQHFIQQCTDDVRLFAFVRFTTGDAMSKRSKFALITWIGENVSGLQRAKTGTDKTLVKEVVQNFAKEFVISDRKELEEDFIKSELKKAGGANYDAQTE
UniProt Q96F85: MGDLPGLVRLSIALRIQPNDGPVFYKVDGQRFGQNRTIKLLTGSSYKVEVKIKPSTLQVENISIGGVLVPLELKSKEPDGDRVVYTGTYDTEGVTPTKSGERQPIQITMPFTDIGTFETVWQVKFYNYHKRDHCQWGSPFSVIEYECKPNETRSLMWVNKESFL
UniProt Q9UKF6: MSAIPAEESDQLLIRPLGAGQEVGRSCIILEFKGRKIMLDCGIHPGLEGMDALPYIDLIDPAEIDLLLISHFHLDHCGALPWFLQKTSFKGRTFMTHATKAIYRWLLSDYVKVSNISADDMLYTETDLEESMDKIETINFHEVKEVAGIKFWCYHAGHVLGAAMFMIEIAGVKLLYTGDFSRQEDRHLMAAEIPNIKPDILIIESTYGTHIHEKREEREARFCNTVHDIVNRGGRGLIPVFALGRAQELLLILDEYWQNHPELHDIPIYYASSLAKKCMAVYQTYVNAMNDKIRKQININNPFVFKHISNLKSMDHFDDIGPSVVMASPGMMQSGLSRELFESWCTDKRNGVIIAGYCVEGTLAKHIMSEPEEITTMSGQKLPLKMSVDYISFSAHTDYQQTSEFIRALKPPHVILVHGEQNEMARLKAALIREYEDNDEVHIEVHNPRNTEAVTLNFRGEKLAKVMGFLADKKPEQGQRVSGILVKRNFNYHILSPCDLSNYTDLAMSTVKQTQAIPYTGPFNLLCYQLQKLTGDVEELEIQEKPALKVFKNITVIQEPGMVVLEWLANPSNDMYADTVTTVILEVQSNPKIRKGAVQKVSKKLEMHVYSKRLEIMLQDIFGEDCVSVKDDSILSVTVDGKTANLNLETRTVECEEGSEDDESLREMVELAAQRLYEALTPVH
UniProt Q13057: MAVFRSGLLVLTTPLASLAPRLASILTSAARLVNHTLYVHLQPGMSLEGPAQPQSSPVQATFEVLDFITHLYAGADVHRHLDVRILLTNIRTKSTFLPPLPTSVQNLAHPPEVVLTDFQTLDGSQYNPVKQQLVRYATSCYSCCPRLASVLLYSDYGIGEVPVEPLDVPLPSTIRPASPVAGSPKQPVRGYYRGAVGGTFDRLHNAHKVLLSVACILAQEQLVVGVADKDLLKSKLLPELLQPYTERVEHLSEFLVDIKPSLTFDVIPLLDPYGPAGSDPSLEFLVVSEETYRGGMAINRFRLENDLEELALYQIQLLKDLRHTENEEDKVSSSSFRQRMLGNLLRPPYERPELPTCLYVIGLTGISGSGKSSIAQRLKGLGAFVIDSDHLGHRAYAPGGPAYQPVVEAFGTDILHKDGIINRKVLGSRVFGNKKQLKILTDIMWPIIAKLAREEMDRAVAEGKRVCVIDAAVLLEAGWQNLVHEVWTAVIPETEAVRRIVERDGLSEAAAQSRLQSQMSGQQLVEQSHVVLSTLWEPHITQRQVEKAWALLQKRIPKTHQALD
UniProt Q9P000, whole entry, looked up: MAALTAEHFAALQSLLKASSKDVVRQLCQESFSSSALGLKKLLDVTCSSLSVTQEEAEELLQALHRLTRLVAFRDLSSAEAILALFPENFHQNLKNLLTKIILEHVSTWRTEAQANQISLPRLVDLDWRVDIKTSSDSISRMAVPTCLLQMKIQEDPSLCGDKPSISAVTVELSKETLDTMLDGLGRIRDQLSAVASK
UniProt Q96JB2: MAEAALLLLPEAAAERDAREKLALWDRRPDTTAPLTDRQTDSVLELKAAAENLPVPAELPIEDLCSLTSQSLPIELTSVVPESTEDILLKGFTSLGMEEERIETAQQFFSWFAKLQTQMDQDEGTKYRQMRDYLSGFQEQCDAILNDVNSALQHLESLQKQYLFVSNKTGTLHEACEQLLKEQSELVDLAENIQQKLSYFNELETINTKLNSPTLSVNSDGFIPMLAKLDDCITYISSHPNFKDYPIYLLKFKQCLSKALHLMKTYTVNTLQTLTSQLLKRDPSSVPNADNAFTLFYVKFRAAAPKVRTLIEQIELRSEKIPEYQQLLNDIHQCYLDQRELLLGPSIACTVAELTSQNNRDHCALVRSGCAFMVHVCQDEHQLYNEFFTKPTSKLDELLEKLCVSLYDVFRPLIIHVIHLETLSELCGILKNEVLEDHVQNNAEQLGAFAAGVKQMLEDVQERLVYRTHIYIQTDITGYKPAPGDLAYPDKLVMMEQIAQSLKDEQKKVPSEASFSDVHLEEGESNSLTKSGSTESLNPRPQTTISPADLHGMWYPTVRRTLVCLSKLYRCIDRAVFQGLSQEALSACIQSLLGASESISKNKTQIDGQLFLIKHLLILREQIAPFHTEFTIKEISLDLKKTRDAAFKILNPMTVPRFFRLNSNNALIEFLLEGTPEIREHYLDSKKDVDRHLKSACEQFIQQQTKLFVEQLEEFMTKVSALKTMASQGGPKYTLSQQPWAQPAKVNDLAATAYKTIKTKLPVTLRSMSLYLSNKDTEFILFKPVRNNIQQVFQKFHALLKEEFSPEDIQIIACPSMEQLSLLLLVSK
UniProt Q8N129: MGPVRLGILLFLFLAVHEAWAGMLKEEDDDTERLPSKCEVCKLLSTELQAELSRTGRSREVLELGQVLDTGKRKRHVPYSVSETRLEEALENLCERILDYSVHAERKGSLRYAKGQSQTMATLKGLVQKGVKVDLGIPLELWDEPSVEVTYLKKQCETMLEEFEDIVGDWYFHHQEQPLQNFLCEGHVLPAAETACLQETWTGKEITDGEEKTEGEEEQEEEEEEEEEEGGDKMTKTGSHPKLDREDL

Compound: CC1=C2C(=CC=C1)N=C(N(C2=O)C3=CC=CC=C3C)CN4C=NC5=C(N=CN=C54)N
Assay: log2 fold change, soluble protein after heating vs DMSO (PISA); higher = thermal stabilisation; K562 lysate, 10 uM; active = over 0.2 and 3.5 SD of the protein, either way, in both replicates (recomputed)
Method in brief: (§1)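 Dounce homogenisation of K562 pellets in PBS pH 7.4 with 1 mM MgCl2 produced a crude extract, used at 1 mg/mL protein. Exposure to 10 μM compound lasted 30 min, and aliquots were then heated for 3 min across 48°C-58°C, pooled and brought to 0.5% NP-40 at 4°C. The supernatant after 21,000xg for 90 min was quantified by TMTpro 16plex LC-MS/MS with channel sums equalised. Duplicate values are given as log-two fold change in thermal stability relative to solvent controls.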

Row | Target | log2 fold change
1 | COPS7A (UniProt Q9UBW8) | inactive: -0.011
2 | COG2 (UniProt Q14746) | inactive: 0.054
3 | CNOT10 (UniProt Q9H9A5) | inactive: 0.08
4 | COG8 (UniProt Q96MW5) | inactive: -0.063
5 | CORO1C isoform 3 (UniProt Q9ULV4) | inactive: 0.001
6 | COX18 (UniProt Q8N8Q8) | inactive: -0.041
7 | COX20 isoform 2 (UniProt Q5RI15) | inactive: -0.092
8 | COIL (UniProt P38432) | inactive: 0.051
9 | COX6A1 (UniProt P12074) | inactive: -0.06
10 | COLEC11 isoform 10 (UniProt Q9BWP8) | inactive: -0.048
11 | CNIH4 (UniProt Q9P003) | inactive: -0.017
12 | COA1 (UniProt Q9GZY4) | inactive: 0.033
13 | COMTD1 (UniProt Q86VU5) | inactive: 0.045
14 | COPS2 isoform 2 (UniProt P61201) | inactive: -0.022
15 | CPSF7 isoform 3 (UniProt Q8N684) | inactive: -0.021
16 | COQ7 (UniProt Q99807) | inactive: 0.025
17 | CNST (UniProt Q6PJW8) | inactive: -0.018
18 | COX15 (UniProt Q7KZN9) | inactive: -0.024

Row | Target | log2 fold change
19 | COTL1 (UniProt Q14019) | inactive: 0.01
20 | CNOT6 (UniProt Q9ULM6) | inactive: 0.041
21 | CNRIP1 (UniProt Q96F85) | inactive: 0.003
22 | CPSF3 (UniProt Q9UKF6) | inactive: 0.008
23 | COLGALT2 (UniProt Q8IYK4) | inactive: 0.039
24 | COPB1 (UniProt P53618) | inactive: 0.015
25 | COASY isoform 2 (UniProt Q13057) | inactive: 0.03
26 | CPNE3 (UniProt O75131) | inactive: 0.055
27 | COMMD9 (UniProt Q9P000) | inactive: 0.008
28 | COPG2 (UniProt Q9UBF2) | inactive: 0.008
29 | CNOT8 (UniProt Q9UFF9) | inactive: 0.022
30 | COG3 (UniProt Q96JB2) | inactive: 0.016
31 | CNDP2 (UniProt Q96KP4) | inactive: -0.022
32 | CNOT2 (UniProt Q9NZN8) | inactive: -0.019
33 | COX5A (UniProt P20674) | inactive: -0.006
34 | COL6A5 (UniProt A8TX70) | inactive: 0.089
35 | CNPY4 (UniProt Q8N129) | inactive: 0.039

Compound: Cc1sc2c(c1C)C(c1ccc(Cl)cc1)=N[C@@H](CC(=O)OC(C)(C)C)c1nnc(C)n1-2
Assay: as above
Method in brief: as §1

Row | Target | log2 fold change
36 | COPS7A (UniProt Q9UBW8) | inactive: -0.002
37 | COG2 (UniProt Q14746) | inactive: 0.001
38 | CNOT10 (UniProt Q9H9A5) | inactive: -0.048
39 | COG8 (UniProt Q96MW5) | inactive: -0.019
40 | CORO1C isoform 3 (UniProt Q9ULV4) | inactive: -0.011
41 | COX18 (UniProt Q8N8Q8) | inactive: -0.015
42 | COX20 isoform 2 (UniProt Q5RI15) | inactive: 0.001
43 | COIL (UniProt P38432) | inactive: 0.041
44 | COX6A1 (UniProt P12074) | inactive: -0.014
45 | COLEC11 isoform 10 (UniProt Q9BWP8) | inactive: -0.019
46 | CNIH4 (UniProt Q9P003) | inactive: 0.11
47 | COA1 (UniProt Q9GZY4) | inactive: -0.054
48 | COMTD1 (UniProt Q86VU5) | inactive: 0.022
49 | COPS2 isoform 2 (UniProt P61201) | inactive: 0.024
50 | CPSF7 isoform 3 (UniProt Q8N684) | inactive: 0.03
51 | COQ7 (UniProt Q99807) | inactive: -0.052
52 | CNST (UniProt Q6PJW8) | inactive: 0.004
53 | COX15 (UniProt Q7KZN9) | inactive: -0.014

Row | Target | log2 fold change
54 | COTL1 (UniProt Q14019) | inactive: 0.031
55 | CNOT6 (UniProt Q9ULM6) | inactive: 0.041
56 | CNRIP1 (UniProt Q96F85) | inactive: 0.155
57 | CPSF3 (UniProt Q9UKF6) | inactive: 0.019
58 | COLGALT2 (UniProt Q8IYK4) | inactive: 0.029
59 | COPB1 (UniProt P53618) | inactive: -0.015
60 | COASY isoform 2 (UniProt Q13057) | inactive: 0.07
61 | CPNE3 (UniProt O75131) | inactive: 0.033
62 | COMMD9 (UniProt Q9P000) | inactive: -0.013
63 | COPG2 (UniProt Q9UBF2) | inactive: 0.005
64 | CNOT8 (UniProt Q9UFF9) | inactive: -0.215
65 | COG3 (UniProt Q96JB2) | inactive: 0.033
66 | CNDP2 (UniProt Q96KP4) | inactive: -0.006
67 | CNOT2 (UniProt Q9NZN8) | inactive: -0.004
68 | COX5A (UniProt P20674) | inactive: -0.017
69 | COL6A5 (UniProt A8TX70) | inactive: -0.061
70 | CNPY4 (UniProt Q8N129) | inactive: -0.028
